Measurements: PMC11865472

Molecular target: T1, inhibin A (InhA), mature heterodimer, unlabelled (UniProt P05111)
T1 sequence 1: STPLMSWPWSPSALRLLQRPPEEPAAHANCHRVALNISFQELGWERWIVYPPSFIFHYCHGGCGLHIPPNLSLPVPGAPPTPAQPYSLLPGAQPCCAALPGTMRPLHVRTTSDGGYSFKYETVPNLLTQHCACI
T1 sequence 2: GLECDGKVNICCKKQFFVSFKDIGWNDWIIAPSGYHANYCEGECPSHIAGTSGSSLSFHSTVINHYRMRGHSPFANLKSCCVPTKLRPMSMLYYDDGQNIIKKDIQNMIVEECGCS
Assay: SPR; InhA immobilized on the chip surface; BG_ZP-C variants injected in a 2-fold dilution series; how InhA was coupled is not said; both purified

binding: binds
Substance: rat betaglycan ZP-C domain (BG_(ZP-C)), mammalian-expressed (domain or fragment)

These are yes or no findings as the source states them, for the method shown. A result given as binding can be weak or reduced; the word gives no strength.
